We go through two substances from paper PMC12488921.

Chains of the proteins cited; added tags and fusions are not shown. Lines headed by an entry give the natural chain unless they say otherwise; changes in a name come on top. A line that says so, or that is headed by a name, gives the form on record, which may keep a tag or linker. Residues count along the entry.
Human DNAJB6b (O75190-2, form named): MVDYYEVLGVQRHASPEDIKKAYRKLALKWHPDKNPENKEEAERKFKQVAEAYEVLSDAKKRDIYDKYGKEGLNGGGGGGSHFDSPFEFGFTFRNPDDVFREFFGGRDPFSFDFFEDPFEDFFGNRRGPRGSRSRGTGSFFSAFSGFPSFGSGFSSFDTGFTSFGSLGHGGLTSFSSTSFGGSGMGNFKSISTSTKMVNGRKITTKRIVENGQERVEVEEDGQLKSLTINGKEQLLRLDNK
ΔST JB6 (DNAJB6b with the deletion of residues 132-184 from wt) (O75190-2, form named): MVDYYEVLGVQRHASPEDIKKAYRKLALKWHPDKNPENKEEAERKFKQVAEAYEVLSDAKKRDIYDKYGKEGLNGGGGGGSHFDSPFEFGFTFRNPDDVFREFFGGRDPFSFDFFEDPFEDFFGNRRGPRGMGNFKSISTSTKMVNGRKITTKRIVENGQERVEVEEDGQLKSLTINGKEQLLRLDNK

Test [1] concerns the target Human DNAJB6b (human) (UniProt O75190). Put plainly: mass photometry; 10 nM pre-equilibrated JB6 (below the cmc), room temperature and 37 °C; buffer filtered through a 5 kDa cutoff spin-filter; compared with eight proteins of known mass; both purified.
Test [2] concerns the target ΔST JB6 (DNAJB6b with the deletion of residues 132-184 from wt) (human) (UniProt O75190). The test can be described thus: mass photometry; ΔST JB6 as one of the proteins of known mass, ambient temperature; both purified.
The target is the same in test [3]. Put plainly: AUC; sedimentation velocity; ΔST JB6 shown together with the pH series of JB6; concentration and pH not stated; both purified.

No constants are given. Whether binding was seen depends on the method and setting.

Regarding “Human DNAJB6b (from UniProt O75190-2 1-241)”, the binding result in test [1] is reported as “no binding (condition: at 10 nM JB6 (below the cmc))”. For the substance “ΔST JB6 (DNAJB6b with the deletion of residues 132-184 from wt) (from UniProt O75190-2 1-241)”, the binding result in test [2] and in test [3] was “no binding” each time.
